Laboratory results published in publication PMC6459503.
Results are given in words; binding and its absence hold for the method and conditions named. Binding seen in cells or lysates may run through a third protein. Some binding calls cover weakened binding; strength is not graded here.

Protein sequences, listed by entry. Tags and fused reporters are not part of them. Lines headed by an entry give the natural chain unless they say otherwise; changes in a name come on top. Chains listed by the source or under a name are the forms on record and can include a tag or linker.
UniProt Q96EB6: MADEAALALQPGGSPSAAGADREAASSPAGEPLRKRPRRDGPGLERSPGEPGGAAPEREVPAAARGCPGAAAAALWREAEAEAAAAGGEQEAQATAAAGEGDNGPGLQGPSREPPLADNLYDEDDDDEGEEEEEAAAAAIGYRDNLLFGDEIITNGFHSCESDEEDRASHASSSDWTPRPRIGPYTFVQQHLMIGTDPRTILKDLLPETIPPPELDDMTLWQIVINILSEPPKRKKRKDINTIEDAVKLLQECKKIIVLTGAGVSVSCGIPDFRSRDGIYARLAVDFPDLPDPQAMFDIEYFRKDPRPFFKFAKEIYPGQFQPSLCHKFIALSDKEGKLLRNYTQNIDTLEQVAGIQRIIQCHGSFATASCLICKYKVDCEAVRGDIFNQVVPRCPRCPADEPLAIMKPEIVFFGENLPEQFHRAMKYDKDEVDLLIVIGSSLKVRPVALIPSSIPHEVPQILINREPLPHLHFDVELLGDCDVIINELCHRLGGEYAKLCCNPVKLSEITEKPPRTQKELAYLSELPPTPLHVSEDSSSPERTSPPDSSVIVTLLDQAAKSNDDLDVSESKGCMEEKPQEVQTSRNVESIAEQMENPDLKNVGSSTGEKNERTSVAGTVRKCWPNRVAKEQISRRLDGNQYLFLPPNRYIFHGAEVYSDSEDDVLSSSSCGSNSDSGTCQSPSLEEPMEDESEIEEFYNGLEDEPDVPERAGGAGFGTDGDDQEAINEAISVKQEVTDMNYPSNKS
Flag-tagged SIRT1 deletion construct Δ8 (Q96EB6, form named): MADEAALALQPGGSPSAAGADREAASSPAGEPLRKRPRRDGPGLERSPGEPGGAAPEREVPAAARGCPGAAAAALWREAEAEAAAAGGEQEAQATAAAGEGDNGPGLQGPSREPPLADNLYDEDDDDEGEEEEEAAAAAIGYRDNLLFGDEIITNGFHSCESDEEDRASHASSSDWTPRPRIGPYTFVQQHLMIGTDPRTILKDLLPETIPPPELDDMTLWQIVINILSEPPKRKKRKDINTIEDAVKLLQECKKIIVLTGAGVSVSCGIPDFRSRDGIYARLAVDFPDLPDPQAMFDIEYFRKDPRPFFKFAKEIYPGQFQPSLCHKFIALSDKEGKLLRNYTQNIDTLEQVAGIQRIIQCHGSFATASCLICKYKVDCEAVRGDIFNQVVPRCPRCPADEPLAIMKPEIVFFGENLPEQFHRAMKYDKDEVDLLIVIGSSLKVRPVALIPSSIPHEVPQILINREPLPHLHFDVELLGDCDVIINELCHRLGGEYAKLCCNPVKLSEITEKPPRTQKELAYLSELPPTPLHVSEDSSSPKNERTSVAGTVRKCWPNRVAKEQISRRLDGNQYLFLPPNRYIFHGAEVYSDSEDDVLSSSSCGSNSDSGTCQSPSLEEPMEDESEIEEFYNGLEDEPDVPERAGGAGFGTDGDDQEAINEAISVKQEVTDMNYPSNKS
UniProt Q4QQW4: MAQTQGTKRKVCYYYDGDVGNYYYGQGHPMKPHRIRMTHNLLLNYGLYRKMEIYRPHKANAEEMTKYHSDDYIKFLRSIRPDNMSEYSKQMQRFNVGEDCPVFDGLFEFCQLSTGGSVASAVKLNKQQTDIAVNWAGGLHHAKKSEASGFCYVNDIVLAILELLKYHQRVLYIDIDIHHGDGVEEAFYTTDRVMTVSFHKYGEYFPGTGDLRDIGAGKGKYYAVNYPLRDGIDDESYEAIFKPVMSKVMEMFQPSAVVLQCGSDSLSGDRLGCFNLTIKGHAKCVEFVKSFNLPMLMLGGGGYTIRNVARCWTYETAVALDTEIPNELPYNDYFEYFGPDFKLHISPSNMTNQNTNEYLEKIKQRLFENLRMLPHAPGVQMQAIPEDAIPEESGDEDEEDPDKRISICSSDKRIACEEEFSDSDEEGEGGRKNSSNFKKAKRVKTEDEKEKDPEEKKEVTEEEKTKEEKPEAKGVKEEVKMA
UniProt Q13547: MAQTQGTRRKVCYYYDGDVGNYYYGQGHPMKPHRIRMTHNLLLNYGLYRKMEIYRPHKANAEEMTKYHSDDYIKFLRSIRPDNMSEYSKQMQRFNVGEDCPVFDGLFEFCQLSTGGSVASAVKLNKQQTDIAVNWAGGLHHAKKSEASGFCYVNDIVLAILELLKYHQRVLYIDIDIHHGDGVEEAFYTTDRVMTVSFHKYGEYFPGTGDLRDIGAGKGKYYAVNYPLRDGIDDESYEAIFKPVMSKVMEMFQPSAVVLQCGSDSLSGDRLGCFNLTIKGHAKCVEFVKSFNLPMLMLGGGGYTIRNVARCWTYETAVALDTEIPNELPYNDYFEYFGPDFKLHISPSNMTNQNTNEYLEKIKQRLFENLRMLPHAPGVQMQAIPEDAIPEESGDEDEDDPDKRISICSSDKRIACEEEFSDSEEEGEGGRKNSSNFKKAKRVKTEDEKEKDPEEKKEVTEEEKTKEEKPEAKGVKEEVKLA

How the values were obtained:
[1] = molecular target: Flag-tagged SIRT1 deletion construct Δ8 (UniProt Q96EB6); test: co-IP; HEK293T co-transfected 1:1 for 48 h; lysis in 20 mM Tris-HCl pH 7.5, 150 mM NaCl, 1% Triton; IP with Flag antibody (IgG as control) overnight at 4°C, Protein A/G beads; blot for GFP, reprobed for Flag
[2] = molecular target: Flag-tagged full length SIRT1 (UniProt Q96EB6); test: as above
[3] = molecular target: HDAC1, endogenous in cerebellar granule neurons (rat (endogenous in cerebellar granule neurons)) (UniProt Q4QQW4); test: co-IP; endogenous proteins of rat cerebellar granule neurons treated with HK or LK media for 6 h; IP with IgG, SIRT1 or HDAC1 antibody; same lysis buffer

Row | binding [1] | binding [2] | binding [3] | Molecule
1 | binds | binds | – | HDAC1-GFP (from UniProt Q13547 1-482)
2 | binds | binds | – | HDAC1-Δ56-GFP (from UniProt Q13547 57-482) (domain or fragment)
3 | – | – | binds | SIRT1, endogenous in cerebellar granule neurons (protein, UniProt A0A0G2JZ79 1-741) MADEAALALQAGGSPSAAAAMEAASQPADEPLRKRPRRDGPGLGRSPGEPSAAAAAAAAAAGCEAASAAAPAALWREAAGAAAASAEREAPATAAAGDGDNGPGLRREPRAADDFDDDEGEEEDEAAAAAAAAIGYRDNLLLADEIITNGFHSCESDDDDRASHASSSDWTPRPRIGPYTFVQQHLMIGTDPRTILKDLLPETIPPPELDDMTLWQIVINILSEPPKRKKRKDINTIEDAVKLLQECKKIIVLTGAGVSVSCGIPDFRSRDGIYARLAVDFPDLPDPQAMFDIEYFRKDPRPFFKFAKEIYPGQFQPSLCHKFIALSDKEGKLLRNYTQNIDTLEQVAGIQRIIQCHGSFATASCLICKYKVDCEAVRGDIFNQVVPRCPRCPADEPLAIMKPEIVFFGENLPEQFHRAMKYDKDEVDLLIVIGSSLKVRPVALIPSSIPHEVPQILINREPLPHLHFDVELLGDCDVIINELCHRLGGEYAKLCCNPVKLSEITEKPPRTQKELVHLSELPPTPLHISEDSSSPERTVPQDSSVIATLVDQTIKNKVDDLEVSEPKSCVEEKSQEVQTYRNVESINVENPDFKAVGSSTGDKNERTSVAETVRKCWPNRLAKEQISKRLDGNQYLFVPPNRYIFHGAEVYSDSEDDALSSSSCGSNSDSGTCQSPSLEEPLEDESEIEEFYNGLEDDADRPECAGGSGADGGDQEAVNEAIAMKQELTDVNCTPDKSEHY
